Laboratory results taken from patent US5120735A, “Antifungal composition” (Kaken Pharmaceutical Co., Ltd., priority 1987, dated 1992).
Some results were stated once for a whole list of compounds, not compound by compound.

System: Candida albicans MTU 12021
Experiment: Agar dilution MIC, single and combined use
Format: cell-based
Conditions: Compounds 2 to 7 combined with miconazole; Table 5
Experimental: (1) The effects of the combined use of Compound 1 with various imidazole antifungal agents against Candida albicans MTU 12021 strain were examined as follows. […] Then, distilled water containing 0.1% by weight of Tween 80 was added thereto to obtain drug solutions having a concentration of from 1 to 1,000 μg/ml.
1 ml of each drug solution diluted twice was introduced into a sterilized Petri dish, and 8 ml of Sabouraud agar medium was added to prepare a agar plate. Thus, a series of agar plates for the combinations having various concentrations were prepared.
Candida albicans MTU 12021 strain cultured on a Sabouraud agar medium for 24 hours, was suspended in a saline, and a cells suspension having a concentration of 2×10^6 spores/ml was prepared by counting the number of spores by a hemacytometer. Then, 50 μl of the cells suspension was inoculated to the above agar plates by means of a microplanter (manufactured by Sakuma Seisakusho). The inoculated agar plates were cultured at 37° C. for 48 hours, whereupon the presence or absence of the growth of the strain was examined.
Culture medium: Sabouraud agar medium
Culturing condition: 37° C. for 48 hours
Strain used: Candida albicans MTU 12021

Compound	synergistic effects by the combined use with miconazole
CCC(C)(C)c1ccc(CN(C)Cc2cccc3ccccc23)cc1 [Compound 2, N-methyl-N-4-tert-pentylbenzyl-1-naphthalenemethylamine]	synergistic effects by the combined use were observed
CN(Cc1ccc(C(C)(C)C)cc1)Cc1ccc(F)c2ccccc12 [Compound 3, N-4-tert-butylbenzyl-N-methyl-4-fluoro-1-naphthalenemethylamine]	synergistic effects by the combined use were observed
CN(Cc1ccc(C(C)(C)C)cc1)Cc1csc2ccccc12 [Compound 4, N-4-tert-butylbenzyl-N-methyl-3-benzo[b]thiophenemethylamine]	synergistic effects by the combined use were observed
CN(Cc1ccc(C(C)(C)C)s1)Cc1cccc2ccccc12 [Compound 5, N-methyl-N-(1-naphthalenemethyl)-5-tert-butyl-2-thiophenemethylamine]	synergistic effects by the combined use were observed
CN(C/C=C/C#CC(C)(C)C)Cc1cccc2ccccc12 [Compound 7, (E)-N-[6,6-dimethyl-2-hepten-4-ynyl)-N-methyl-1-naphthalenemethylamine]	synergistic effects by the combined use were observed
